{"source": "PubChem BioAssay AID1259308, NCATS | 2017", "test": "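Candidate targets for better recombinant protein yield in mammalian cells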 (primary screen)", "cells": "human HEK293 embryonic kidney cells stably expressing firefly luciferase (HEK-CMV-Luc2-Hygro)", "reagent": "single siRNA against human genes, 0.8 pmol siRNA per well", "timing": "72 h", "measurement": "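Luciferase light (ONE-Glo) measured on one replicate plate set and viability (CellTiter-Glo) on the other, scaled to a negative control siRNA, with robust z-scores and luciferase per cell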", "direction": "total luciferase, z-score: higher = more reporter protein produced", "call rule": "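Active when the median/MAD z-score for overall luciferase is greater than 3; a gene was taken forward for validation with new siRNAs if at least two of its three siRNAs passed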", "meaning of the calls": "active = raised luciferase; inactive = no rise", "note": "Shown is an unselected part of about 59,000 reagents. In the full data, about 1,510 (2.6%) were called active. 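Calls use total luciferase alone and ignore viability, so some active siRNAs may act by altering cell number.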 A number with no mark means an inactive call. The numbers tell different reagents against one gene apart. Further read-outs or replicates are left out here."}
{"target":"PITX2","siRNA no.":1,"total luciferase, z-score":-1.16}
{"target":"PITX2","siRNA no.":2,"total luciferase, z-score":"4.59 (active)"}
{"target":"PITX2","siRNA no.":3,"total luciferase, z-score":-0.818}
{"target":"GGH","siRNA no.":1,"total luciferase, z-score":0.146}
{"target":"GGH","siRNA no.":2,"total luciferase, z-score":-0.18}
{"target":"GGH","siRNA no.":3,"total luciferase, z-score":-0.467}
{"target":"NDC1","siRNA no.":1,"total luciferase, z-score":-0.444}
{"target":"NDC1","siRNA no.":2,"total luciferase, z-score":1.96}
{"target":"NDC1","siRNA no.":3,"total luciferase, z-score":-0.314}
{"target":"GPR17","siRNA no.":1,"total luciferase, z-score":-1.55}
{"target":"GPR17","siRNA no.":2,"total luciferase, z-score":0.365}
{"target":"GPR17","siRNA no.":3,"total luciferase, z-score":1.93}
{"target":"AOC1","siRNA no.":1,"total luciferase, z-score":0.4}
{"target":"AOC1","siRNA no.":2,"total luciferase, z-score":0.833}
{"target":"AOC1","siRNA no.":3,"total luciferase, z-score":"4.54 (active)"}
{"target":"CAPNS1","siRNA no.":1,"total luciferase, z-score":1.89}
{"target":"CAPNS1","siRNA no.":2,"total luciferase, z-score":-0.00317}
{"target":"CAPNS1","siRNA no.":3,"total luciferase, z-score":0.864}
{"target":"COXFA4L2","siRNA no.":1,"total luciferase, z-score":0.896}
{"target":"COXFA4L2","siRNA no.":2,"total luciferase, z-score":0.417}
{"target":"COXFA4L2","siRNA no.":3,"total luciferase, z-score":0.00179}

Sorted by “total luciferase, z-score” (ascending): some entries from above.
{"target":"PITX2","siRNA no.":3,"total luciferase, z-score":-0.818}
{"target":"GGH","siRNA no.":3,"total luciferase, z-score":-0.467}
{"target":"NDC1","siRNA no.":1,"total luciferase, z-score":-0.444}
{"target":"GGH","siRNA no.":2,"total luciferase, z-score":-0.18}
{"target":"GGH","siRNA no.":1,"total luciferase, z-score":0.146}
{"target":"NDC1","siRNA no.":2,"total luciferase, z-score":1.96}
{"target":"PITX2","siRNA no.":2,"total luciferase, z-score":"4.59 (active)"}

The listing continues:
{"target":"TRPV4","siRNA no.":1,"total luciferase, z-score":0.0298}
{"target":"TRPV4","siRNA no.":2,"total luciferase, z-score":0.144}
{"target":"TRPV4","siRNA no.":3,"total luciferase, z-score":-1.77}
{"target":"HS3ST1","siRNA no.":1,"total luciferase, z-score":0.0509}
{"target":"HS3ST1","siRNA no.":2,"total luciferase, z-score":-0.488}
{"target":"HS3ST1","siRNA no.":3,"total luciferase, z-score":-0.0227}
{"target":"CACNA1G","siRNA no.":1,"total luciferase, z-score":1}
{"target":"CACNA1G","siRNA no.":2,"total luciferase, z-score":0.832}
{"target":"CACNA1G","siRNA no.":3,"total luciferase, z-score":-0.019}
{"target":"ZNF18","siRNA no.":1,"total luciferase, z-score":1.48}
{"target":"ZNF18","siRNA no.":2,"total luciferase, z-score":0.344}
{"target":"ZNF18","siRNA no.":3,"total luciferase, z-score":-0.498}
{"target":"GCLM","siRNA no.":1,"total luciferase, z-score":-0.344}
{"target":"GCLM","siRNA no.":2,"total luciferase, z-score":0.0875}
{"target":"GCLM","siRNA no.":3,"total luciferase, z-score":-0.363}
{"target":"TOMM40","siRNA no.":1,"total luciferase, z-score":0.687}
{"target":"TOMM40","siRNA no.":2,"total luciferase, z-score":-0.853}
{"target":"TOMM40","siRNA no.":3,"total luciferase, z-score":-3.27}
{"target":"PTPDC1","siRNA no.":1,"total luciferase, z-score":-0.569}
{"target":"PTPDC1","siRNA no.":2,"total luciferase, z-score":-0.399}
{"target":"PTPDC1","siRNA no.":3,"total luciferase, z-score":-0.195}
